Measured values reported in the supplement of paper PMC11732987, “Enantioselective OTUD7B fragment discovery through chemoproteomics screening and high-throughput optimisation” (Communications Chemistry, 2025).
Some of the results follow. The data scatter; read single values as rough.

The chains behind the UniProt entries cited, without tags or fusion partners. Where a name states a change or a piece, a line headed by the entry shows the natural chain unless it says otherwise. Residues count along the entry.
UniProt Q8TC44: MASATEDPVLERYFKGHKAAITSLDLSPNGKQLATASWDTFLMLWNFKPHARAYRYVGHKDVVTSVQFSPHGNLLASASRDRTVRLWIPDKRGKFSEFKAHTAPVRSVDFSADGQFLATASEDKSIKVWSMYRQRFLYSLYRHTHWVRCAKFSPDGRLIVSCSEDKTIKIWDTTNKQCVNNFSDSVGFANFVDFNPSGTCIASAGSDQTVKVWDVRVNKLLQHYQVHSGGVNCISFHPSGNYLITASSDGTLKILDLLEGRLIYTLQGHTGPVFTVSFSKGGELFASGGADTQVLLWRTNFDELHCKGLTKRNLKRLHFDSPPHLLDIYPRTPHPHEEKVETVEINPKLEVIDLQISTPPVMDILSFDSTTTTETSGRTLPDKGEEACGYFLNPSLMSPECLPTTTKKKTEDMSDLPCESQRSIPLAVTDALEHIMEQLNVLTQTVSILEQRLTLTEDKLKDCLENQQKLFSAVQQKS
UniProt Q8IYS1: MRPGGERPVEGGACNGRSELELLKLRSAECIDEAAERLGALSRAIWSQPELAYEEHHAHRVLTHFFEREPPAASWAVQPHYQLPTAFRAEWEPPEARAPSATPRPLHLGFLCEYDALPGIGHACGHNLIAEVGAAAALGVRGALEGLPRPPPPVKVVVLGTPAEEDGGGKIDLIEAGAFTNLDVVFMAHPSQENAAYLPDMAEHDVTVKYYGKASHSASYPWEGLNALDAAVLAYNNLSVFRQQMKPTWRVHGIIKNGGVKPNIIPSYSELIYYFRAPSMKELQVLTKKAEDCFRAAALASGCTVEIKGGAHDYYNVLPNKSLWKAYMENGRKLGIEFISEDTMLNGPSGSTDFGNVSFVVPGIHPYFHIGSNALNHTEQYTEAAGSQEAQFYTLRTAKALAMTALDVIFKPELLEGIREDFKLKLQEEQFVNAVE
UniProt Q6IQ23: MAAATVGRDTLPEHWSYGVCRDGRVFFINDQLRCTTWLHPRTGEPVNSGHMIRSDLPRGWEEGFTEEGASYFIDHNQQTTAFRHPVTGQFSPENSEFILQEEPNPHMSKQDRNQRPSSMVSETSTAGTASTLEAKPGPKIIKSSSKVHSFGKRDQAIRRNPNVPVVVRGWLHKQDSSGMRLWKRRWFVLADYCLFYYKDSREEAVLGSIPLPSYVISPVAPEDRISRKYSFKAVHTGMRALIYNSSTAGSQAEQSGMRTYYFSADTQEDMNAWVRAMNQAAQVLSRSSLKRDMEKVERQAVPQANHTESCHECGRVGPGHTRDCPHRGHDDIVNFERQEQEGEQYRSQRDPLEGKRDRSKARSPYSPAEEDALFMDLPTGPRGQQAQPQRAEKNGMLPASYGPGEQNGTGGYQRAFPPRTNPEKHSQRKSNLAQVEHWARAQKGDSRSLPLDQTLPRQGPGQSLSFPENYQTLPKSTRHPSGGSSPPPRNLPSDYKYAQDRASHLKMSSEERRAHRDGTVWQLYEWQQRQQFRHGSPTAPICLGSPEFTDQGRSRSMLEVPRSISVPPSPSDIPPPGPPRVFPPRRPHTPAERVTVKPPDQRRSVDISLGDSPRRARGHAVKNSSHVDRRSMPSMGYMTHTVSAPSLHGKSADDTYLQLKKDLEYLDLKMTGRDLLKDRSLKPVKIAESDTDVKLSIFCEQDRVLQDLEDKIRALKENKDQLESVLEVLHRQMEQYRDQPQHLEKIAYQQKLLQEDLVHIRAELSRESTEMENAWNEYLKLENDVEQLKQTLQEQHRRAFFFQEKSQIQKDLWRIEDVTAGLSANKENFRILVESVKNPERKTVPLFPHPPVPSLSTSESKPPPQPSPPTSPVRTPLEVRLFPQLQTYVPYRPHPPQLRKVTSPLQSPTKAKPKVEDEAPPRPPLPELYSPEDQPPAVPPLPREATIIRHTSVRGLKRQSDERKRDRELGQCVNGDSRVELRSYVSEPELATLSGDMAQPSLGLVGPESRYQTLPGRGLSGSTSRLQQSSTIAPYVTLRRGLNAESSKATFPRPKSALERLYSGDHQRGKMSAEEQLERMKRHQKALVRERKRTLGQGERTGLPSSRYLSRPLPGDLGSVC
UniProt Q9Y2I7: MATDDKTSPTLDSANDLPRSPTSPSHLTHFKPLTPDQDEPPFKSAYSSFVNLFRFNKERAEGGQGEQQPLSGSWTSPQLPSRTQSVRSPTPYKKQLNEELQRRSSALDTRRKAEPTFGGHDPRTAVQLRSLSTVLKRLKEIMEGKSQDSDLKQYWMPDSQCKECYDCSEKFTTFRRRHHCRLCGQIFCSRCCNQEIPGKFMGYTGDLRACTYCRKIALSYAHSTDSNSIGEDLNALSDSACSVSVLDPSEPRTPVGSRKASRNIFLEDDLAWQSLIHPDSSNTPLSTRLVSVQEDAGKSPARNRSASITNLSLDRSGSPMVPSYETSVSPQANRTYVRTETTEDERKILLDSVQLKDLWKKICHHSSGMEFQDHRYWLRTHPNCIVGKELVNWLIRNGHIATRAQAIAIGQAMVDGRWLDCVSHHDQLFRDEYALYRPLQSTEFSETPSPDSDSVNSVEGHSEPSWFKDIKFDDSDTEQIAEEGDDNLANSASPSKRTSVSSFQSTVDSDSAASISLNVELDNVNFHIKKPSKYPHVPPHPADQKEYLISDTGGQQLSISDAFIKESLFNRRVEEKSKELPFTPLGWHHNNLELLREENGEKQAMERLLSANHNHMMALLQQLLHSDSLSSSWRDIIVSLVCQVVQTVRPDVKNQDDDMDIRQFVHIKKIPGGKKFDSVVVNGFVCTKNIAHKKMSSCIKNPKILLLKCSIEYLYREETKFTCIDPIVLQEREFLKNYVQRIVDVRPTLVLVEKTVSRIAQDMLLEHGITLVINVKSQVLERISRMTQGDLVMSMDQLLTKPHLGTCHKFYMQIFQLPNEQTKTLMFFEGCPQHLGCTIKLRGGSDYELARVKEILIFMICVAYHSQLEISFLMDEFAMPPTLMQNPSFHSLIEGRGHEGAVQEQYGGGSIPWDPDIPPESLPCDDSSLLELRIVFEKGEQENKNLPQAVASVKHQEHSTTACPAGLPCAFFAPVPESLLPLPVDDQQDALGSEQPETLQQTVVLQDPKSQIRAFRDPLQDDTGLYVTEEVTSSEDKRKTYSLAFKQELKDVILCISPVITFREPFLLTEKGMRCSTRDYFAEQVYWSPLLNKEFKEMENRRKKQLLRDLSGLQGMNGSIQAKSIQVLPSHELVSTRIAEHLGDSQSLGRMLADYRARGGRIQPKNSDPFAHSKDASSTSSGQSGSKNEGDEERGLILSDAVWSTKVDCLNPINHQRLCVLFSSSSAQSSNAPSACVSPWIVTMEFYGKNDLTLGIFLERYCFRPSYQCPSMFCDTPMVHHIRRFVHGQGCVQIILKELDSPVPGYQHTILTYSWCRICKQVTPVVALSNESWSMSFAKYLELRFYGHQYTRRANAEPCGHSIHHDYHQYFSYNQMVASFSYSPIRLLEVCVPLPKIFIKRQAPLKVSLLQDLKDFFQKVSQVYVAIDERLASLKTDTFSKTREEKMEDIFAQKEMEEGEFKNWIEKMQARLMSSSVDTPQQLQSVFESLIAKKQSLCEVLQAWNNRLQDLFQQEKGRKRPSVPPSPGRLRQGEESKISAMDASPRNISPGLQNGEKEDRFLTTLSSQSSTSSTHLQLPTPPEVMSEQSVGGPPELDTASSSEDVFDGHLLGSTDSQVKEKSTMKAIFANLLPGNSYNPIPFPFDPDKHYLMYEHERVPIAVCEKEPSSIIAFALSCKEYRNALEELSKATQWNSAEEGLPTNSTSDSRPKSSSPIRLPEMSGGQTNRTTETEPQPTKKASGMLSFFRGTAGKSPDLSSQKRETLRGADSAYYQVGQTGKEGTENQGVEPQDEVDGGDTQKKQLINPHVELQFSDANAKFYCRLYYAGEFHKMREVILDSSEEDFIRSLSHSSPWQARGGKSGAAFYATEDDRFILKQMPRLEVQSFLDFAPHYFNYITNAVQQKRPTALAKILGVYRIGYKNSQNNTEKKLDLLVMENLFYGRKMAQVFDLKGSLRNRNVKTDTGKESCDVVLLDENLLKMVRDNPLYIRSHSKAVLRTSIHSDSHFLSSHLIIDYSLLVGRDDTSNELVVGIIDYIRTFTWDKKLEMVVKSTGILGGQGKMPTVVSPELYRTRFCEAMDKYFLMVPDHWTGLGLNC
UniProt O75439: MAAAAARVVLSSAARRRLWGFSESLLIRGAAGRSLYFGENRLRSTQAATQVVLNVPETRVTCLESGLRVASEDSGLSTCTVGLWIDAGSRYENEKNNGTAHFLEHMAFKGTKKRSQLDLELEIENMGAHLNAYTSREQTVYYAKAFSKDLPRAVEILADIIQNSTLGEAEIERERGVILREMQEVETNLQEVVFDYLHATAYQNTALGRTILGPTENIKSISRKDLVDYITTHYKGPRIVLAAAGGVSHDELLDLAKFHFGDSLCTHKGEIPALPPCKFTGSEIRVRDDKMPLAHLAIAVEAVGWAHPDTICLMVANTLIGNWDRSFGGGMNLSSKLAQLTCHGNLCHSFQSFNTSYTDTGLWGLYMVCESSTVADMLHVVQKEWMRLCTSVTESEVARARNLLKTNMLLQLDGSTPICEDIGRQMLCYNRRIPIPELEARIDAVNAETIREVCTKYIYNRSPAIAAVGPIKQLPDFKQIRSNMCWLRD
UniProt O95602, whole entry, looked up: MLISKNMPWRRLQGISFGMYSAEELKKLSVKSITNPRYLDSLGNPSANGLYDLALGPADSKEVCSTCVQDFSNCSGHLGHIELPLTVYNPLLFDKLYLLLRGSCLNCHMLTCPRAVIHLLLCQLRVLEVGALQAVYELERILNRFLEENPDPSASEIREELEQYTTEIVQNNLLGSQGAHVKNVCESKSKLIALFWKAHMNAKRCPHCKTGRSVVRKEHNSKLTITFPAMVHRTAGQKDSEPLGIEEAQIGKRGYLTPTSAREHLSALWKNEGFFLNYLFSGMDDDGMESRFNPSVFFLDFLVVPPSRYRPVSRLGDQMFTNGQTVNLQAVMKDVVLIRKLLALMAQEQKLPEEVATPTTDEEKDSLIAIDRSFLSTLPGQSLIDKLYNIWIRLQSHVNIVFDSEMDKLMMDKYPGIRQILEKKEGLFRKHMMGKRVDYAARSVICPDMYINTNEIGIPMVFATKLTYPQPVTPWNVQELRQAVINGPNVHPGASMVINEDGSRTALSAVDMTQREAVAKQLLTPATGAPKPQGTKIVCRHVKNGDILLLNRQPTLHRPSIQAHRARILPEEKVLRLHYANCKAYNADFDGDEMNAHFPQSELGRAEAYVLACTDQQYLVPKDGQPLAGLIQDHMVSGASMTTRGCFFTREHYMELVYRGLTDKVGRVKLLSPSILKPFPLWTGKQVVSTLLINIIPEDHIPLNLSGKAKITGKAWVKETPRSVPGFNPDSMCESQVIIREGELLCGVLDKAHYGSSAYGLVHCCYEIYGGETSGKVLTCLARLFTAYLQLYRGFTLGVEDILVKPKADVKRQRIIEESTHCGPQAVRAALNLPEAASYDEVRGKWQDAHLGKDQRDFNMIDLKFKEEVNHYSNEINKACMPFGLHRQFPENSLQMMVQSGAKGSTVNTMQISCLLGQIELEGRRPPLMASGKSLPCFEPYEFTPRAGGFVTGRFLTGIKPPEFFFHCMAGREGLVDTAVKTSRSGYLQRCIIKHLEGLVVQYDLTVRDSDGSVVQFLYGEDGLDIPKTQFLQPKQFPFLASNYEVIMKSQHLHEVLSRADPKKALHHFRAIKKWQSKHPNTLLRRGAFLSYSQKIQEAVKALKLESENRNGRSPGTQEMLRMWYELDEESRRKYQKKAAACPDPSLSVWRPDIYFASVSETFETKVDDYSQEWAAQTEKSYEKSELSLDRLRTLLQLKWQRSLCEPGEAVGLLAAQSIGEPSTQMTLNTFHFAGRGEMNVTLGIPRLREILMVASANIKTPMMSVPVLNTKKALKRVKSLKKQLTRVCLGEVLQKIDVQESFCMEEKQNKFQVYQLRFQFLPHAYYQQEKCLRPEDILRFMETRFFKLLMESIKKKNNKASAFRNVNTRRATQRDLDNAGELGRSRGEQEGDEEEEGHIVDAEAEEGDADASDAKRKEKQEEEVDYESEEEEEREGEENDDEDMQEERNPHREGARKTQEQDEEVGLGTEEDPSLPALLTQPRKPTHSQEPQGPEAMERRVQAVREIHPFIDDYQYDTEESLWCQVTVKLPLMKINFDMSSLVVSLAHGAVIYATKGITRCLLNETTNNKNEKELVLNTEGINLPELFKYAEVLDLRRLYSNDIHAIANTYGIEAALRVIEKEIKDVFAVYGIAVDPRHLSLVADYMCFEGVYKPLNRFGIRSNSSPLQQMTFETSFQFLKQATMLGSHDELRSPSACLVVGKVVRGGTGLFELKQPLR
UniProt Q9H8W4, 140-160: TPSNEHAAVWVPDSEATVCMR
UniProt P37287, 333-353: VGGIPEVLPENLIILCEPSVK

compound: ClCC(=O)N[C@@H]1CCCc2ccccc12; assay: log2 mean competition ratio of IA-DTB cysteine labelling (DMSO/compound) (log2 ratio); higher = stronger cysteine engagement by compound; settings: 50 µM; treatment time: 4 h; cell line lysate: HEK293T
Procedure: (§1)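 IA-DTB competitive cysteine chemoproteomics in HEK293T RIPA lysate. Lysates were treated with compound 29 or 30 at 50 or 200 µM for 4 h, then IA-DTB (500 µM, 1 h), trypsin-digested, NeutrAvidin-enriched and analysed by diaPASEF. Competition ratio = intensity DMSO / intensity compound (n=4 treated, n=64 DMSO); binding: mean log2 CR ≥ 1 and p ≤ 0.05 plus QC filters. Target is the cysteine site.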

| Target | log2 mean competition ratio |
| --- | --- |
| PHF3 C885 (UniProt Q92576) | -0.102 |
| PKP2 C647 (UniProt Q99959) | -0.0535 |
| POC1B C418 (UniProt Q8TC44) | -0.14 |
| PLCG2 C791 (UniProt P16885) | -0.115 |
| PM20D2 C14 (UniProt Q8IYS1) | 0.429 |
| PLEKHA7 C699 (UniProt Q6IQ23) | -0.322 |
| PHF3 C561 (UniProt Q92576) | -0.0333 |
| PKN2 C394 (UniProt Q16513) | -0.289 |
| PIKFYVE C1663 (UniProt Q9Y2I7) | -0.116 |
| PMPCB C485 (UniProt O75439) | 0.0817 |

same assay, conditions: 200 µM; treatment time: 4 h; cell line lysate: HEK293T

| Target | log2 mean competition ratio |
| --- | --- |
| PMPCB C277 (UniProt O75439) | -0.179 |
| PHRF1 C710 (UniProt Q9P1Y6) | 0.257 |
| PLIN2 C302 (UniProt Q99541) | -0.193 |
| PIK3CD C366 (UniProt O00329) | -0.0495 |
| PHF3 C186 (UniProt Q92576) | -0.0154 |
| PMS2 C653 (UniProt P54278) | -0.198 |
| PM20D2 C30 (UniProt Q8IYS1) | 0.177 |
| PLA2G4A C726 (UniProt P47712) | -0.128 |
| POLA1 C1458 (UniProt P09884) | 0.0655 |
| PIGW C409 (UniProt Q7Z7B1) | 0.182 |
| PNMA3 C130 | 0.461 |
| POLR1A C733 (UniProt O95602) | -0.0772 |
| PHKG2 C188 (UniProt P15735) | -0.0341 |
| POLD1 C761 (UniProt P28340) | 0.205 |
| PHKB C348 (UniProt Q93100) | -0.138 |
| PMM1 C145 (UniProt Q92871) | 0.116 |
| POGZ C1267 (UniProt Q7Z3K3) | -0.000408 |
| PLCH1 C1279 (UniProt Q4KWH8) | -0.269 |
| PLEKHF2 C158 (UniProt Q9H8W4) | 0.0173 |

| Target | log2 mean competition ratio |
| --- | --- |
| PMS1 C243 (UniProt P54277) | 0.0526 |
| POLR1F C47 | 0.282 |
| PHKA1 C551 (UniProt P46020) | -0.221 |
| POLR1A C746 (UniProt O95602) | -0.19 |
| PIK3R1 C498 (UniProt P27986) | -0.262 |
| PIGA C348 (UniProt P37287) | 0.358 |
| PIK3C2A C669 (UniProt O00443) | 0.131 |
| PHF3 C1771 (UniProt Q92576) | 0.529 |
| PHF3 C885 (UniProt Q92576) | -0.0819 |
| PKP2 C647 (UniProt Q99959) | 0.103 |
| POC1B C418 (UniProt Q8TC44) | 0.0756 |
| PLCG2 C791 (UniProt P16885) | 0.128 |
| PM20D2 C14 (UniProt Q8IYS1) | 0.543 |
| PLEKHA7 C699 (UniProt Q6IQ23) | -0.249 |
| PHF3 C561 (UniProt Q92576) | -0.0382 |
| PKN2 C394 (UniProt Q16513) | 0.0982 |
| PIKFYVE C1663 (UniProt Q9Y2I7) | 0.0356 |
| PMPCB C485 (UniProt O75439) | 0.0679 |

compound: ClCC(=O)N[C@H]1CCCc2ccccc12; assay: as above; settings: 50 µM; treatment time: 4 h; cell line lysate: HEK293T
Procedure: as §1

| Target | log2 mean competition ratio |
| --- | --- |
| PMPCB C277 (UniProt O75439) | 0.0939 |
| PHRF1 C710 (UniProt Q9P1Y6) | 0.114 |
| PLIN2 C302 (UniProt Q99541) | -0.339 |
| PIK3CD C366 (UniProt O00329) | -0.176 |
| PHF3 C186 (UniProt Q92576) | 0.064 |
| PMS2 C653 (UniProt P54278) | -0.543 |
| PM20D2 C30 (UniProt Q8IYS1) | -0.058 |
| PLA2G4A C726 (UniProt P47712) | -0.0979 |
| POLA1 C1458 (UniProt P09884) | 0.358 |
| PIGW C409 (UniProt Q7Z7B1) | -0.0145 |
| PNMA3 C130 | -0.777 |
| POLR1A C733 (UniProt O95602) | 0.156 |
| PHKG2 C188 (UniProt P15735) | -0.15 |
| POLD1 C761 (UniProt P28340) | -0.0837 |
| PHKB C348 (UniProt Q93100) | 0.0994 |
| PMM1 C145 (UniProt Q92871) | 0.144 |
| POGZ C1267 (UniProt Q7Z3K3) | 0.638 |
| PLCH1 C1279 (UniProt Q4KWH8) | 0.659 |
| PLEKHF2 C158 (UniProt Q9H8W4) | -0.277 |

| Target | log2 mean competition ratio |
| --- | --- |
| PMS1 C243 (UniProt P54277) | -0.431 |
| POLR1F C47 | -0.0319 |
| PHKA1 C551 (UniProt P46020) | 0.0482 |
| POLR1A C746 (UniProt O95602) | -0.498 |
| PIK3R1 C498 (UniProt P27986) | -0.238 |
| PIGA C348 (UniProt P37287) | -0.0237 |
| PIK3C2A C669 (UniProt O00443) | -0.13 |
| PHF3 C1771 (UniProt Q92576) | -0.0174 |
| PHF3 C885 (UniProt Q92576) | -0.211 |
| PKP2 C647 (UniProt Q99959) | 0.386 |
| POC1B C418 (UniProt Q8TC44) | -0.076 |
| PLCG2 C791 (UniProt P16885) | -0.0145 |
| PM20D2 C14 (UniProt Q8IYS1) | 0.54 |
| PLEKHA7 C699 (UniProt Q6IQ23) | -0.468 |
| PHF3 C561 (UniProt Q92576) | 0.019 |
| PKN2 C394 (UniProt Q16513) | -0.51 |
| PIKFYVE C1663 (UniProt Q9Y2I7) | 0.0977 |
| PMPCB C485 (UniProt O75439) | -0.0359 |
